Results deposited as PubChem BioAssay AID602196 (INSERM, 2012).
The deposit covers about 23,000 reagents; this is an unselected part. 455 of all reagents (2%) count as active. 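Active includes both protection and sensitisation; some change values fall well beyond the stated -50 to +50 range.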 Further read-outs or replicates are left out here. Reagent sequences are not shown. The record does not give: the amount of reagent.

Screen: 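Modifiers of cisplatin sensitivity in A549 cells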
System: human A549 lung cancer cells
Reagents: siRNA pair against human genes
Timing: 48 h transfection before cisplatin; time from cisplatin to read-out not stated
Treatment: cisplatin at a dose killing half of control-siRNA cells; exact dose and duration not given
Measurement: 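Shift in cisplatin death relative to control siRNA, from -50 (all cells die) to +50 (no cells die); siRNAs harmful on their own scored 0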
Direction: two-siRNA summed score (-2 to +2): higher = both siRNAs protect from cisplatin killing; -2 means both sensitise; mean protection from cisplatin (shift in death): higher = protection from cisplatin killing
Call rule: 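siRNAs harmful alone (LDH or WST-1) get 0; others get +1 for less and -1 for more cisplatin killing; genes are active when the two siRNAs give the same sign, summing to ±2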
Calls: active = both siRNAs shift cisplatin killing the same way; inactive = no consistent shift, or siRNA harmful alone

The first 2 entries as a preview:
LOC402554 [SID131509258]: two-siRNA summed score (-2 to +2) = 0; mean protection from cisplatin (shift in death) (%) = 2; activity call = inactive
ABCE1 [SID131501664]: two-siRNA summed score (-2 to +2) = -1; mean protection from cisplatin (shift in death) (%) = -8.3; activity call = inactive

The list itself, from the first entry:
LOC402554 [SID131509258]: two-siRNA summed score (-2 to +2) = 0; mean protection from cisplatin (shift in death) (%) = 2; activity call = inactive
ABCE1 [SID131501664]: two-siRNA summed score (-2 to +2) = -1; mean protection from cisplatin (shift in death) (%) = -8.3; activity call = inactive
LOC442728 [SID131523054]: two-siRNA summed score (-2 to +2) = 2; mean protection from cisplatin (shift in death) (%) = 18; activity call = active
LOC442399 [SID131507101]: two-siRNA summed score (-2 to +2) = 0; mean protection from cisplatin (shift in death) (%) = -0.6; activity call = inactive
WDR19 [SID131510256]: two-siRNA summed score (-2 to +2) = 0; mean protection from cisplatin (shift in death) (%) = 3; activity call = inactive
QDPR [SID131509278]: two-siRNA summed score (-2 to +2) = 0; mean protection from cisplatin (shift in death) (%) = 2; activity call = inactive
LOC440151 [SID131517462]: two-siRNA summed score (-2 to +2) = 0; mean protection from cisplatin (shift in death) (%) = 13.5; activity call = inactive
MTMR12 [SID131507268]: two-siRNA summed score (-2 to +2) = 0; mean protection from cisplatin (shift in death) (%) = -0.3; activity call = inactive
MRPL23 [SID131519130]: two-siRNA summed score (-2 to +2) = 1; mean protection from cisplatin (shift in death) (%) = 2.8; activity call = inactive
TMPRSS12 [SID131500798]: two-siRNA summed score (-2 to +2) = -1; mean protection from cisplatin (shift in death) (%) = -15.9; activity call = inactive
RAD18 [SID131500643]: two-siRNA summed score (-2 to +2) = -1; mean protection from cisplatin (shift in death) (%) = -18.6; activity call = inactive
L3MBTL2 [SID131505769]: two-siRNA summed score (-2 to +2) = 0; mean protection from cisplatin (shift in death) (%) = -2.6; activity call = inactive
LRP3 [SID131515268]: two-siRNA summed score (-2 to +2) = 0; mean protection from cisplatin (shift in death) (%) = 8.9; activity call = inactive
IQCM [SID131511159]: two-siRNA summed score (-2 to +2) = 0; mean protection from cisplatin (shift in death) (%) = 4; activity call = inactive
TRIT1 [SID131504192]: two-siRNA summed score (-2 to +2) = 0; mean protection from cisplatin (shift in death) (%) = -6.2; activity call = inactive
LOC339287 [SID131518117]: two-siRNA summed score (-2 to +2) = 0; mean protection from cisplatin (shift in death) (%) = 16.7; activity call = inactive
KRTAP20-1 [SID131519656]: two-siRNA summed score (-2 to +2) = 1; mean protection from cisplatin (shift in death) (%) = 6.8; activity call = inactive
HEXA [SID131503022]: two-siRNA summed score (-2 to +2) = 0; mean protection from cisplatin (shift in death) (%) = -15.9; activity call = inactive
CLTA [SID131516364]: two-siRNA summed score (-2 to +2) = 0; mean protection from cisplatin (shift in death) (%) = 10.7; activity call = inactive
LOC442534 [SID131517616]: two-siRNA summed score (-2 to +2) = 0; mean protection from cisplatin (shift in death) (%) = 14.1; activity call = inactive
EP400 [SID131515585]: two-siRNA summed score (-2 to +2) = 0; mean protection from cisplatin (shift in death) (%) = 9.4; activity call = inactive
